No constants are given. Whether binding was seen depends on the method and setting. Binding seen in cells or lysates may run through a third protein. Binding can be weak; no strength is given.
Assays:
[1] = molecular target: microtubule-associated protein tau (mouse (endogenous in mouse brain)) (UniProt P10637); assay: proximity ligation; Duolink, < 40 nm; primary tau+/+ neurons fixed at 21 DIV; mouse Tau5 and rabbit SynGAP1 antibodies
[2] = molecular target: microtubule-associated protein tau (mouse (endogenous in mouse brain)) (UniProt P10637); assay: co-IP; precipitation with tau antibodies (Tau5, Tau1, 4RTau) from tau+/+ mouse brain extracts; 50 mM Tris-HCl, 150 mM NaCl, 1% NP-40; overnight at 4 C; magnetic protein G beads; washes with 150-250-450 mM NaCl; Western blot for SynGAP1

Protein sequences, listed by entry. Tags and fused reporters are not part of them. Lines headed by an entry give the natural chain unless they say otherwise; changes in a name come on top.
UniProt P10637: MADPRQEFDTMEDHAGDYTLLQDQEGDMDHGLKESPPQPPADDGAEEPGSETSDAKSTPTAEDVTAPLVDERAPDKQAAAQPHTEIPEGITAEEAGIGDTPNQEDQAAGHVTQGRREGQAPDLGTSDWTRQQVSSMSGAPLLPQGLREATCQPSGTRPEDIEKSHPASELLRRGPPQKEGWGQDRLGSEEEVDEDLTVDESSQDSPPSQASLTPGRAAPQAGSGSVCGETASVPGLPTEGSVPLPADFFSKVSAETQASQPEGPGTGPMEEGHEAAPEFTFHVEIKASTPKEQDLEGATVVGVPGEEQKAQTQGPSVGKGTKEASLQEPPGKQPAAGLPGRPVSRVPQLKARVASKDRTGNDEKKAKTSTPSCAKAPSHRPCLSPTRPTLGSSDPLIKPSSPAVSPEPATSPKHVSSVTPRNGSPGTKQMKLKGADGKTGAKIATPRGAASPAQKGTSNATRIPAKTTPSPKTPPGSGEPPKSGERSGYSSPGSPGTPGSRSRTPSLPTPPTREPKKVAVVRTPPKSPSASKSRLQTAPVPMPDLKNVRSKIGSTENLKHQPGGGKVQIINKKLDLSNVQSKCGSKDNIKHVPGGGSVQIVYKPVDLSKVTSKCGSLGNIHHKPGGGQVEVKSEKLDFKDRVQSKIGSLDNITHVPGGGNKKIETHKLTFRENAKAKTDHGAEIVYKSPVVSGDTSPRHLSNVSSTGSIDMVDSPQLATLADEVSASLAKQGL

- binding [1]: binds
- binding [2]: binds
Substance: SynGAP1 (from UniProt F6SEU4 1-1340)
